{"sequences": {"note": "Protein sequences, listed by entry. Tags and fused reporters are not part of them.", "UniProt P51812, whole entry": "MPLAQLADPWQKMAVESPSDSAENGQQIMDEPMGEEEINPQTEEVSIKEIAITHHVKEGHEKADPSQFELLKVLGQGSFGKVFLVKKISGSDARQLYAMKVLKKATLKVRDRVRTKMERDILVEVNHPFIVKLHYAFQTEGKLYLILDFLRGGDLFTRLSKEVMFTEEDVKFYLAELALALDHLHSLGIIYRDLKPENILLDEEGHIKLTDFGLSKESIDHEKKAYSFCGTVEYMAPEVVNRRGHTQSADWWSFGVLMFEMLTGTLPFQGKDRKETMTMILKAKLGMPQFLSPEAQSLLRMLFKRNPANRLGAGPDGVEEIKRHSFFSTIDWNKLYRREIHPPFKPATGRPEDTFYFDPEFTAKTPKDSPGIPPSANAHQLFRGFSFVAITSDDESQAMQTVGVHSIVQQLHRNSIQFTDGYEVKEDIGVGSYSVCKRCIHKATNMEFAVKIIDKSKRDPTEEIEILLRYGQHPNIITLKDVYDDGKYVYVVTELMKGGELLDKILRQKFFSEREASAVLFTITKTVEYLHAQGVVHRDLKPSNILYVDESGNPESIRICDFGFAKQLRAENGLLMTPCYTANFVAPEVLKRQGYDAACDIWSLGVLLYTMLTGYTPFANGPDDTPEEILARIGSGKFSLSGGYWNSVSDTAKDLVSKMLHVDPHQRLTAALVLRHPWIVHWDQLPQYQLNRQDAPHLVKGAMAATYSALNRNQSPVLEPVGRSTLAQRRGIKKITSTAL"}, "source": "patent US9040673B2", "about": "“Synthesis and identification of novel RSK-specific inhibitors” (University of Virginia Patent Foundation, priority 2009, dated 2015)", "biological_target": "RSK (Homo sapiens, UniProt P51812)", "assay": "RSK kinase assay using immobilized substrate", "format": "biochemical", "conditions": "500 nM compound, 10 micromoles/L ATP, 10 minutes", "note": "Some results were stated once for a whole list of compounds, not compound by compound."}
{"smiles": "CCCC1OC(Oc2c(-c3ccc(O)cc3)oc3cc(O)cc(O)c3c2=O)C(O)C(OC(C)=O)C1OC(C)=O", "note": "[compound 16, Kaempferol-6″ethyl-L-rhamnoside-3″,4″-diacetate]", "values": [{"measurement": "inhibitory activity relative to SL0101", "result": "> 2", "unit": "×"}]}
